From publication PMC7862700
The list shows a part of the results, in another mix than the full data. For some assays here: At the low end of the ranking the order means little. Some of the results follow. For some assays here: The exact form of the protein is not confirmed.

Amino acid sequences for entries named in this document (tags omitted). A change or cut given only in a name is not applied to a line headed by its entry.
UniProt Q00613: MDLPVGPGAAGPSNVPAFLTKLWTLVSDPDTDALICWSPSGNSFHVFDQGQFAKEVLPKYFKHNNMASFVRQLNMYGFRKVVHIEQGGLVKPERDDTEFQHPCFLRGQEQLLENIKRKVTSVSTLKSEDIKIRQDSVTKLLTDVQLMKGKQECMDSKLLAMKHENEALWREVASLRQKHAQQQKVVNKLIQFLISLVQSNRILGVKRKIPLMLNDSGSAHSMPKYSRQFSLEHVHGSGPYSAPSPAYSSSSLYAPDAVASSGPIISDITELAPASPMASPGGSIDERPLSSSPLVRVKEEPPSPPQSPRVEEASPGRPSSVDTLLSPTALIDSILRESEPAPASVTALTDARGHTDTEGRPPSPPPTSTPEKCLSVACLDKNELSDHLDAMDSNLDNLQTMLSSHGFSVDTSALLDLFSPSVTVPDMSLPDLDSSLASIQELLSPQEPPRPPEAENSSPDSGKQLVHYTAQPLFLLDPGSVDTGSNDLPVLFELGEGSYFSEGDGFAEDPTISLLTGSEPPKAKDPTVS

biological target: HSF1 (UniProt Q00613); test: DAPPL (digital affinity profiling via proximity ligation, sequencing); conditions: 10 mM Tris-HCl pH 7.5, 50 mM NaCl, 1 mM DTT, 4% glycerol, room temperature, 30 min; GST-TFs on glutathione beads, 16-mer random dsDNA library, 0.1% …; high values mean tight binding; double strand, one strand shown; scale: fold enrichment (6-mer frequency, TF over GST control)

Row | Sequence | binding signal
1 | TGCAGC | 0.872
2 | TGGTCA | 0.753
3 | CATCAG | 0.792
4 | TCCGGG | 0.66
5 | GATACA | 0.789
6 | AAACCT | 1.15
7 | TAGGGT | 1.06
8 | CTGCGT | 0.93
9 | AGACTC | 0.964
10 | CATATC | 0.914
11 | ACGTTG | 0.896
12 | CTGGGC | 0.949
13 | GCGACC | 0.854
14 | TGTTCG | 1.6
15 | CATAAC | 0.916
16 | AGTTTA | 0.967
17 | GTGTAA | 0.848
18 | GTTATA | 0.984
19 | TGAAAT | 1.02
20 | AATCTA | 1.87

Row | Sequence | binding signal
21 | CTCCAT | 1.21
22 | ACACCA | 0.806
23 | GCTGCA | 0.838
24 | GTACAC | 0.899
25 | TGACGG | 0.815
26 | ACGCTT | 1.22
27 | AGTGGT | 0.837
28 | CGGCAA | 0.78
29 | GTTGAC | 0.843
30 | CAATGA | 0.873
31 | CACCCG | 0.95
32 | CGGCAT | 0.922
33 | GCCACA | 0.729
34 | ATCAAG | 1.03
35 | GCCCGC | 0.887
36 | ACCTCT | 1.18
37 | GATGTC | 0.876
38 | TCATCT | 1.44
39 | TACCTT | 1.3
40 | CTACGT | 0.982

biological target: T1, ELF2 (UniProt Q15723); test: as above; conditions: 10 mM Tris-HCl pH 7.5, 50 mM NaCl, 1 mM DTT, 4% glycerol, room temperature, 30 min; GST-TFs on glutathione beads, 16-mer random dsDNA library, 0.1% …; high values mean tight binding; double strand, one strand shown; scale: fold enrichment (6-mer frequency, TF over GST control)
T1 sequence: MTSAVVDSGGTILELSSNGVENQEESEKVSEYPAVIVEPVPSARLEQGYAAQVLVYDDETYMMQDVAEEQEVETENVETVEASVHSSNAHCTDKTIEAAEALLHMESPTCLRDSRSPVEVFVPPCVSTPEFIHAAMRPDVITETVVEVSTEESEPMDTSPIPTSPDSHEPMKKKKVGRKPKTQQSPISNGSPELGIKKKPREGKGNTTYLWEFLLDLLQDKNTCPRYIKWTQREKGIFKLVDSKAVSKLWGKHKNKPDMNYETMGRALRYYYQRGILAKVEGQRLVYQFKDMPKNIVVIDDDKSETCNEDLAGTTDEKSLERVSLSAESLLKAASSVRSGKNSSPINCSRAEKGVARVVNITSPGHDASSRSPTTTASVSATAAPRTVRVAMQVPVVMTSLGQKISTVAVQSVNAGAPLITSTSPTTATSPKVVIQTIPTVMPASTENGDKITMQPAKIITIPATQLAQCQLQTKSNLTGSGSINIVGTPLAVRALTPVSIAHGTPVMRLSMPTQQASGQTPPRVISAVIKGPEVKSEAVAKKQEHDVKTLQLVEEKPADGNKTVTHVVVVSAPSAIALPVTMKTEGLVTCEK

Row | Sequence | binding signal
41 | TGCAGC | 0.983
42 | TGGTCA | 0.957
43 | CATCAG | 0.918
44 | TCCGGG | 2.24
45 | GATACA | 1.01
46 | AAACCT | 1.07
47 | TAGGGT | 1.06
48 | CTGCGT | 1.11
49 | AGACTC | 0.878
50 | CATATC | 1.39
51 | ACGTTG | 1
52 | CTGGGC | 1.01
53 | GCGACC | 1.06
54 | TGTTCG | 1.04
55 | CATAAC | 1.15
56 | AGTTTA | 0.959
57 | GTGTAA | 0.887
58 | GTTATA | 0.991
59 | TGAAAT | 0.991
60 | AATCTA | 1.14

Row | Sequence | binding signal
61 | CTCCAT | 1.26
62 | ACACCA | 0.942
63 | GCTGCA | 0.989
64 | GTACAC | 1.2
65 | TGACGG | 0.917
66 | ACGCTT | 1.41
67 | AGTGGT | 1.05
68 | CGGCAA | 0.938
69 | GTTGAC | 1.15
70 | CAATGA | 0.943
71 | CACCCG | 1.3
72 | CGGCAT | 1.11
73 | GCCACA | 0.911
74 | ATCAAG | 0.899
75 | GCCCGC | 1.01
76 | ACCTCT | 1.25
77 | GATGTC | 1.38
78 | TCATCT | 1.11
79 | TACCTT | 1.38
80 | CTACGT | 1.19
